{
  "source": "patent US20260265214A1",
  "about": "“NOVEL DERIVATIVES OF GLYCEROL” (SYMRISE AG, priority 2023, published 2026)",
  "key": {"[1]": {"test": "Odor description of the prepared substances", "conditions": "for Odor description: substance as obtained; for Hedonic assessment / Odor character compared with the cis/trans-mixture and the other isomer: pure isomers from Spaltrohr-column distillation"}, "[2]": {"test": "Perfume oils in eau de toilette, evaluated blind by a panel of trained perfumers", "conditions": "250 of 1000 parts in perfume oil, oil at 10% in eau de toilette; for Strength of the fragrance compared to the version with only solvent: vs perfume oil 11"}, "[3]": {"conditions": "background description; cited from earlier work"}, "[4]": {"test": "Evaluation on blotter (strength, dry down)"}, "[5]": {"test": "Perfume oils in all-purpose cleaner, pH neutral, evaluated blind by a panel of trained perfumers", "conditions": "30 of 1000 parts in perfume oil, oil at 0.3% in all-purpose cleaner"}, "[6]": {"test": "Perfume oils in body lotion, evaluated blind by a panel of trained perfumers", "conditions": "100 of 1000 parts in perfume oil, oil at 0.3% in body lotion"}},
  "note": "Entries after “also recorded” stand apart in the source; their conditions may differ.",
  "data": [
    {"compound": "CCCCCCC1OCC(COC(C)=O)O1", "note": "(mixture of isomers) [(2′-hexyl-1′,3′-dioxolan-4′-yl)methyl acetate]", "values": [
      {"measurement": "Odor description", "setting": "[1]", "value": "Floral, fruity, jasminic, metallic"}
    ]},
    {"compound": "CCCCCC1C(=O)CCC1CC(=O)OC", "note": "(stereo not drawn) [methyl dihydrojasmonate, methyl 2-(3′-oxo-2′-pentylcyclopentyl)acetate]", "values": [
      {"measurement": "Power compared with the version with product of Example 2.1", "setting": "[2]", "value": "more powerful"},
      {"measurement": "Strength of the fragrance compared to the version with only solvent", "setting": "[2]", "value": "much stronger"},
      {"measurement": "Odor", "setting": "[3]", "value": "transparent floral-jasminic note accompanied by the soft-fruity freshness of lemons; also recorded: rather subtle and faint"}
    ]},
    {"compound": "C=CCOCC1COC(CCCCCC)O1", "note": "(single isomer, unassigned; isomer 4) [Example 1 cis-isomer, 4-(allyloxymethyl)-2-hexyl-1,3-dioxolane]", "values": [
      {"measurement": "Odor description", "setting": "[1]", "value": "Soft, floral, jasminic, slightly greasy"}
    ]},
    {"compound": "C=CCOCC1COC(CCCCCC)O1", "note": "(mixture of isomers) [4-(Allyloxymethyl)-2-hexyl-1,3-dioxolane (cis:trans mixture ]", "values": [
      {"measurement": "Odor description", "setting": "[1]", "value": "Floral, soft, jasminic, reminiscent of methyl dihydrojasmonate, with tea aspects and milky-creamy facets"}
    ]},
    {"compound": "C=CCOCC1COC(CCCCCC)O1", "note": "(stereo not drawn) [pure trans-configured 4-(allyloxymethyl)-2-hexyl-1,3-dioxola] [4-(allyloxymethyl)-2-hexyl-1,3-dioxolane]", "values": [
      {"measurement": "Hedonic assessment", "setting": "[1]", "value": "hedonically clearly preferred"},
      {"measurement": "Odor character compared with the cis/trans-mixture and the other isomer", "setting": "[1]", "value": "more pronounced and complex floral jasmine odor, with a more distinct airy character, with more body and more transparency"},
      {"measurement": "Odor description", "setting": "[1]", "value": "Fresh, hesperidic, jasmine, reminiscent of methyl dihydrojasmonate"},
      {"measurement": "Lasting", "setting": "[4]", "value": "lasts longer than the cis-isomer"},
      {"measurement": "Strength on blotter", "setting": "[4]; also upon dry down", "value": "distinctly stronger than the cis-isomer"}
    ]},
    {"compound": "CCCCCCC1OCC(OC)CO1", "note": "(single isomer, unassigned; isomer 2) [trans-Configured 2-hexyl-5-methoxy-1,3-dioxane isomer, 2-hexyl-5-methoxy-1,3-dioxane]", "values": [
      {"measurement": "Odor description", "setting": "[1]", "value": "Floral, metallic, fruity, jasminic, with aspects of cognac"}
    ]},
    {"compound": "C=CCOCC1COC(CCCCCC)O1", "note": "(single isomer, unassigned; isomer 4) [Example 1 trans-isomer, 4-(allyloxymethyl)-2-hexyl-1,3-dioxolane]", "values": [
      {"measurement": "Odor description", "setting": "[1]", "value": "Fresh, citric, jasminic, methyl dihydrojasmonate"}
    ]},
    {"compound": "C=CCOCC1COC(CCCCCC)O1", "note": "(stereo not drawn) [Example 2.1, 4-(allyloxymethyl)-2-hexyl-1,3-dioxolane]", "values": [
      {"measurement": "Odor description", "setting": "[1]", "value": "Floral, soft-jasminic airy, solar, reminiscent of methyl dihydrojasmonate, faint champignon note"},
      {"measurement": "Effect on floral freshness", "setting": "[5]", "value": "improve more the floral freshness in a similar way to methyl dihydrojasmonate"},
      {"measurement": "Effect on the floral-jasmine note", "setting": "[5]; pH neutral, vs version without (DPG, perfume oil 1)", "value": "enhanced the floral-jasmine note compared to the version without"},
      {"measurement": "Effect on creaminess and floral character", "setting": "[6]", "value": "enhance the creaminess of the fragrance and increase the floral character"},
      {"measurement": "Effect on the top note", "setting": "[6]; effect stronger than with methyl dihydrojasmonate", "value": "more distinct and fresher citrus bloom in the top note"},
      {"measurement": "Covering of the odor of the body-lotion base", "setting": "[6]; vs methyl dihydrojasmonate (perfume oil 7)", "value": "cover the odor of the body-lotion base much better than methyl dihydrojasmonate"},
      {"measurement": "Strength of the fragrance compared to the version with only solvent", "setting": "[2]", "value": "much stronger"}
    ]},
    {"compound": "(2′-Hexyl-1′,3′-dioxan-5′-yl)acetate [cis-(2′-Hexyl-1′,3′-dioxan-5′-yl)acetate]", "values": [
      {"measurement": "Odor description", "setting": "[1]", "value": "Floral, jasminic, solvent, champignon aspects, metallic undertone"}
    ]},
    {"compound": "CCCCCCC1OCC(OC)CO1", "note": "(single isomer, unassigned; isomer 2) [cis-Configured 2-hexyl-5-methoxy-1,3-dioxane isomer, 2-hexyl-5-methoxy-1,3-dioxane]", "values": [
      {"measurement": "Odor description", "setting": "[1]", "value": "Floral, jasmine, with some aspects of champignons"}
    ]},
    {"compound": "C=CCOC1COC(CCCCCC)OC1", "note": "(single isomer, unassigned; isomer 5) [trans-Configured 5-allyloxy-2-hexyl-1,3-dioxane isomer, 5-allyloxy-2-hexyl-1,3-dioxane]", "values": [
      {"measurement": "Odor description", "setting": "[1]", "value": "floral, lily-of-the-valley, jasminic, tea, milky, herbal"}
    ]},
    {"compound": "CCCCCCC1OCC(OCC(C)=O)CO1", "note": "(stereo not drawn) [1-[(2′-hexyl-1′,3′-dioxan-5′-yl)oxy]propan-2-one]", "values": [
      {"measurement": "Odor description", "setting": "[1]", "value": "fresh aldehydic, transparent white floral, jasminic, lily of the valley (muguet) with Florhydral aspects and some facets of green banana"}
    ]},
    {"compound": "C=CCOC1COC(CCCCCC)OC1", "note": "(single isomer, unassigned; isomer 5) [cis-Configured 5-allyloxy-2-hexyl-1,3-dioxane isomer, 5-allyloxy-2-hexyl-1,3-dioxane]", "values": [
      {"measurement": "Odor description", "setting": "[1]", "value": "soft, floral, green, with cardboard and earthy facets"}
    ]},
    {"compound": "CCCCCCC1OCC(COC)O1", "note": "(mixture of isomers) [2-hexyl-4-(methoxymethyl)-1,3-dioxolane]", "values": [
      {"measurement": "Odor description", "setting": "[1]", "value": "Floral, jasminic, with some metallic and green facets as well as slightly fatty, greasy facets"}
    ]},
    {"compound": "(2′-Hexyl-1′,3′-dioxan-5′-yl)acetate [trans-(2′-Hexyl-1′,3′-dioxan-5′-yl)acetate]", "values": [
      {"measurement": "Odor description", "setting": "[1]", "value": "Floral, jasminic, coconut, myrrh, rather weak"}
    ]},
    {"compound": "C=CCOCC1COC(CCCCCC)O1", "note": "(stereo not drawn) [pure cis-configured 4-(allyloxymethyl)-2-hexyl-1,3-dioxolane]", "values": [
      {"measurement": "Hedonic assessment", "setting": "[1]", "value": "hedonically less pleasant"},
      {"measurement": "Odor character compared with the cis/trans-mixture and the other isomer", "setting": "[1]", "value": "more of an aldehydic cyclamen character in addition to the jasmine note and it recalls faintly plastic"},
      {"measurement": "Odor description", "setting": "[1]", "value": "Fatty, floral, jasmine, with plastic and rubbery nuances, lacking freshness"}
    ]}
  ]
}
